Results as given in patent publication EP4669352A1.

B1: MV33 (antibody, V domains shown)
VH: EAQLVESGGGLVHPGGSLRLSCEVSGFTFSNSWMNWVRQAPGKGLECVARIIRNADGETADYAASVRGRFTISRDDPENTLYLRMKSLKTEDTAVYYCTTVPPLSHLFFHETYYFDYWGQGVLVTVSS
VL: QAARTQSPSMSASPGQSVTISCTGTRNDIGGYNYVSWYQQYPGKAPKLMIYDVSKRPSGVSDRFSGSKSGNTASLTISGLQAEDEANYYCSSYAGSNTYVFGSGTKLTIL
B2: MV49 (antibody, V domains shown)
VH: QVQLQESGGGLVQPGGSLRLSCAASGFTFSNSWMNWVRQAPGKGPEWVARIKRKADGETADYAASVKGRFAVSRDDSKNTLYLQINSLKSEDTAVYYCTTVPPLYDLFYRGAYYFDSWGQGVLITVSS
VL: QPVLTQPPSVSGSPGQSVTISCTGTSSDIGGYKYVSWYQQHPGTAPKLMIYEVNKRPSGVSDRFSGSKSGNTASLTISGLQAEDEADYYCSAYSTSRTYIFGPGTRVTVL

Columns and labels:
[1] = target: D8 protein (vaccinia virus); assay: ELISA on recombinant protein
[2] = target: D8 protein (vaccinia virus); assay: restated from ELISA/BLI

Binder | binding [1] | binding [2]
B1 | binds | binds
B2 | binds | –

No constants are given. Whether binding was seen depends on the method and setting. A result given as binding can be weak or reduced; the word gives no strength.
